Source: publication PMC7359039, “Peptides based on the reactive center loop of Manduca sexta serpin-3 block its protease inhibitory function” (Scientific Reports, 2020)
No constants are given. Whether binding was seen depends on the method and setting. Binding can be weak; no strength is given.

Columns and labels:
[1] = biological target: Manduca sexta serpin-3∆N (Manduca sexta); assay: SDS-stable covalent complex by reducing SDS-PAGE and immunoblot; serpin-3ΔN (135 ng) incubated with pre-dried peptide (25 nmol) or dried TFE at 37 °C for 2 h, then PAP3 (108 ng) with 18 µg BSA added, 10 min at room temperature; blot with serpin-3 antiserum; both purified
[2] = biological target: Manduca sexta serpin-3∆N (Manduca sexta); assay: circular dichroism (spectrum and thermal stability) after gel permeation chromatography; serpin-3ΔN (150 µg) and Ac-SVAFS-COO^− (25 µmol) incubated at 37 °C for 2 h; Superdex 200 10/300 GL in 20 mM Tris-HCl, 150 mM NaCl, pH 8.0 to remove free peptide; CD 190-260 nm in 10 mM Tris, 5 mM NaCl, pH 8.0, 20 to 90 °C; both purified

| Binder | binding [1] | binding [2] |
| --- | --- | --- |
| SVAFS (N-terminal acetyl; C-terminal amide) [Ac-SVAFS-NH2] | binds | – |
| SVAFSAT (N-terminal acetyl; C-terminal amide) [Ac-SVAFSAT-NH2] | binds | – |
| SVAFSATQ (N-terminal acetyl; C-terminal amide) [Ac-SVAFSATQ-NH2] | binds | – |
| SVAFS (N-terminal acetyl; free carboxyl end) [Ac-SVAFS-COO^−] | – | binds |
